According to the supplement of paper PMC5662767:
Structures can show the parent of a compound that is named as a salt. This is one part of the list. Plates or batches differ in their baseline, so values are only roughly comparable.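 The clonal Drosophila S2 line carries Smoothened with a circularly permuted GFP inserted in its cytoplasmic tail, which fluoresces once Hh-driven phosphorylation opens an inhibitory loop. Per-cell fluorescence was read by flow cytometry, scaled to Hh-stimulated untreated cells. Hits were groups of inhibitors sharing pathway targets that shifted fluorescence consistently, not single compounds.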

Test system: Drosophila S2 cl14 SmoIP sensor cells
Test: normalized SmoIP GFP fluorescence (untreated unstimulated = 0%, untreated Hh-stimulated = 100%); higher = more Smo activation sensor fluorescence
Conditions: compound concentration: 15 uM, 24 h
[1] = stimulation: Hh conditioned medium (+Hh)
[2] = stimulation: mock conditioned medium (-Hh)

Nc1nc(CC(=O)Nc2ccc(CCNC[C@H](O)c3ccccc3)cc2)cs1 [mirabegron-ym178]
normalized SmoIP GFP fluorescence [1]: 122% | normalized SmoIP GFP fluorescence [2]: 2.24%

OC[C@H]1O[C@@H](c2ccc(Cl)c(Cc3ccc(O[C@H]4CCOC4)cc3)c2)[C@H](O)[C@@H](O)[C@@H]1O
normalized SmoIP GFP fluorescence [1]: 140% | normalized SmoIP GFP fluorescence [2]: -11.4%

CCCCOc1ccc(CC(=O)NO)cc1 [bufexamac]
normalized SmoIP GFP fluorescence [1]: 116% | normalized SmoIP GFP fluorescence [2]: -3.16%

CC(C)c1nc(CN(C)C(=O)N[C@@H](CCN2CCOCC2)C(=O)N[C@H](CC[C@H](Cc2ccccc2)NC(=O)OCc2cncs2)Cc2ccccc2)cs1 [cobicistat-gs-9350]
normalized SmoIP GFP fluorescence [1]: 176% | normalized SmoIP GFP fluorescence [2]: 58.6%

CCOC(=O)[C@H](CCc1ccccc1)N[C@@H](C)C(=O)N1Cc2ccccc2C[C@H]1C(=O)O [quinapril-hydrochloride-accupril]
normalized SmoIP GFP fluorescence [1]: 125% | normalized SmoIP GFP fluorescence [2]: -11.6%

CC(=O)c1cc([N+](=O)[O-])c(Sc2cccc(Cl)c2Cl)s1
normalized SmoIP GFP fluorescence [1]: -63.1% | normalized SmoIP GFP fluorescence [2]: 18.6%

COc1ccc(CC(C)NCC(O)c2ccc(O)c(NC=O)c2)cc1 (stereo not given) [formoterol-hemifumarate]
normalized SmoIP GFP fluorescence [1]: 132% | normalized SmoIP GFP fluorescence [2]: -14.1%

CN1CCN(C(c2ccccc2)c2ccccc2)CC1 [cyclizine-2hcl]
normalized SmoIP GFP fluorescence [1]: 125% | normalized SmoIP GFP fluorescence [2]: -0.151%

N#CC1(c2ccc(NC(=O)c3cccnc3NCc3ccncc3)cc2)CCCC1 [Apatinib-YN968D1]
normalized SmoIP GFP fluorescence [1]: 58.8% | normalized SmoIP GFP fluorescence [2]: 45.5%

COc1ccc(COc2cc3oc(=O)c4cc(C(C)O)ccc4c3cc2OC)cc1 (stereo not given) [Palomid-529-P529]
normalized SmoIP GFP fluorescence [1]: 140% | normalized SmoIP GFP fluorescence [2]: -6.97%

Cc1c(NC(=O)OC[C@@H]2COCCN2)cn2ncnc(Nc3ccc4c(cnn4Cc4cccc(F)c4)c3)c12
normalized SmoIP GFP fluorescence [1]: 71.5% | normalized SmoIP GFP fluorescence [2]: 81.3%

O=C(Cc1ccc(-c2ccc(OCCN3CCOCC3)cc2)cn1)NCc1ccccc1
normalized SmoIP GFP fluorescence [1]: 112% | normalized SmoIP GFP fluorescence [2]: 15.4%

CO[C@@H](C(=O)N1Cc2[nH]nc(NC(=O)c3ccc(N4CCN(C)CC4)cc3)c2C1)c1ccccc1
normalized SmoIP GFP fluorescence [1]: 265% | normalized SmoIP GFP fluorescence [2]: 35.2%

COc1ccc2c(c1)c(CC(=O)N1CCOCC1)c(C)n2C(=O)c1ccc(Cl)cc1
normalized SmoIP GFP fluorescence [1]: 130% | normalized SmoIP GFP fluorescence [2]: 1.84%

CC(C)c1nc(CN(C)C(=O)N[C@H](C(=O)N[C@@H](Cc2ccccc2)C[C@H](O)[C@H](Cc2ccccc2)NC(=O)OCc2cncs2)C(C)C)cs1 [Ritonavir]
normalized SmoIP GFP fluorescence [1]: 123% | normalized SmoIP GFP fluorescence [2]: -3.39%

CC(C)NCC(O)c1ccc(O)c(O)c1 (stereo not given) [Isoprenaline-hydrochloride]
normalized SmoIP GFP fluorescence [1]: 134% | normalized SmoIP GFP fluorescence [2]: -12.6%

CCOc1cc2ncc(C#N)c(Nc3ccc(OCc4ccccn4)c(Cl)c3)c2cc1NC(=O)/C=C/CN(C)C [Neratinib(HKI-272)]
normalized SmoIP GFP fluorescence [1]: 49.7% | normalized SmoIP GFP fluorescence [2]: -23.6%

CNC(=O)Nc1ccc(-c2nc(N3CC4CCC(C3)O4)c3cnn(C4CCC5(CC4)OCCO5)c3n2)cc1
normalized SmoIP GFP fluorescence [1]: 114% | normalized SmoIP GFP fluorescence [2]: 8.43%

Cc1cccc(CC(=O)N2CCc3c2ccc(-c2cn(C)c4ncnc(N)c24)c3F)n1
normalized SmoIP GFP fluorescence [1]: 109% | normalized SmoIP GFP fluorescence [2]: 4.68%

CCC(=O)N1CCN(c2ccc(-n3c(=O)ccc4cnc5ccc(-c6cnc7ccccc7c6)cc5c43)cc2C(F)(F)F)CC1 [torin-1]
normalized SmoIP GFP fluorescence [1]: 78.8% | normalized SmoIP GFP fluorescence [2]: -5.04%

Cc1cc(C)nc(NS(=O)(=O)c2ccc(NC(=S)NC(=O)COc3ccc(Br)cc3Cl)cc2)n1
normalized SmoIP GFP fluorescence [1]: 131% | normalized SmoIP GFP fluorescence [2]: -0.378%

CC(C)(C#N)c1cc(Cn2cncn2)cc(C(C)(C)C#N)c1 [Anastrozole]
normalized SmoIP GFP fluorescence [1]: 138% | normalized SmoIP GFP fluorescence [2]: 0.489%

CN1CCN(S(=O)(=O)c2ccc(-c3cnc(N)c(C(=O)Nc4cccnc4)n3)cc2)CC1
normalized SmoIP GFP fluorescence [1]: 108% | normalized SmoIP GFP fluorescence [2]: 10.5%

Cc1c(C(=O)Nc2ccc(N3C[C@@H](C)O[C@@H](C)C3)nc2)cccc1-c1ccc(OC(F)(F)F)cc1
normalized SmoIP GFP fluorescence [1]: 97.8% | normalized SmoIP GFP fluorescence [2]: 42.8%

Cc1cc(C#N)cc(C)c1Oc1nc(Nc2ccc(C#N)cc2)nc(N)c1Br [etravirine-tmc125]
normalized SmoIP GFP fluorescence [1]: 154% | normalized SmoIP GFP fluorescence [2]: 60%

Oc1cc(O)c(Cl)cn1 [gimeracil]
normalized SmoIP GFP fluorescence [1]: 129% | normalized SmoIP GFP fluorescence [2]: -13.6%

CCOC(=O)CCNc1cc(N2CCc3ccccc3CC2)nc(-c2ccccn2)n1
normalized SmoIP GFP fluorescence [1]: 76.1% | normalized SmoIP GFP fluorescence [2]: 88.2%

Cc1nc(NC(=O)N2CCC[C@H]2C(N)=O)sc1-c1ccnc(C(C)(C)C(F)(F)F)c1
normalized SmoIP GFP fluorescence [1]: 96.1% | normalized SmoIP GFP fluorescence [2]: -6.97%

C[C@H](NCc1ccc(OCc2cccc(F)c2)cc1)C(N)=O [Safinamide-mesilate]
normalized SmoIP GFP fluorescence [1]: 142% | normalized SmoIP GFP fluorescence [2]: 18.6%

CC(C)NCC(O)COc1cccc2ccccc12 (stereo not given) [propranolol-hcl]
normalized SmoIP GFP fluorescence [1]: 125% | normalized SmoIP GFP fluorescence [2]: 16.7%

OC[C@@H](O)CN1CCN(c2ccccc2)CC1 [levodropropizine]
normalized SmoIP GFP fluorescence [1]: 112% | normalized SmoIP GFP fluorescence [2]: -1.74%

COc1cccc(C=NCCN=Cc2cccc(OC)c2[O-])c1[O-].[Cl-].[Mn+3]
normalized SmoIP GFP fluorescence [1]: 113% | normalized SmoIP GFP fluorescence [2]: -0.662%

C=CC(=O)Nc1ccc2ncnc(Nc3ccc(OCc4cccc(F)c4)c(Cl)c3)c2c1
normalized SmoIP GFP fluorescence [1]: 139% | normalized SmoIP GFP fluorescence [2]: 5.65%

O=C(NC1CCOCC1)c1ccc(-c2cc(-c3c[nH]nc3-c3ccccn3)ccn2)cc1
normalized SmoIP GFP fluorescence [1]: 176% | normalized SmoIP GFP fluorescence [2]: 19.4%

O=C(NC(NC(=S)Nc1ccc(F)c([N+](=O)[O-])c1)C(Cl)(Cl)Cl)C(c1ccccc1)c1ccccc1 (stereo not given)
normalized SmoIP GFP fluorescence [1]: 60% | normalized SmoIP GFP fluorescence [2]: 64.8%
